PubChem BioAssay AID1259405 – NCATS, 2018
The deposit covers about 50,000 reagents; below is a random part of them. About 4,000 of all reagents (8%) count as active. 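Mouse siRNA library applied to hamster cells; one well for each siRNA.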 Entries without a mark were called inactive.

Test: 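Silenced genes that increase secreted GFP made by CHO cells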 (primary screen)
Cells: Chinese hamster CHO-K1 ovary cells with stable secreted eGFP expression
Reagents: single siRNA against mouse genes, 0.8 pmol siRNA per well (2 µl of 400 nM stock)
Timing: 3 days
Detection: 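Percent of the per-plate non-targeting control median for intracellular GFP per well by laser scanning cytometry and for cell viability by ATP luminescence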
Direction: GFP, % of control: higher = more GFP per well, higher productivity; viability (ATP), % of control: higher = more viable cells (more ATP)
Call rule: 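a knock-down is called active if GFP reaches 120% or more of non-targeting control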

After knock-down of S100a16 [SID363582417] the results were GFP, % of control 79.1; viability (ATP), % of control 111.
For S100a16 [SID363584177], the values are GFP, % of control 74.8; viability (ATP), % of control 75.3.
Silencing of Serpinb2 [SID363573097] gave: GFP, % of control 41.5; viability (ATP), % of control 94.4.
With knock-down of Serpinb2 [SID363577673] the results were GFP, % of control 66.7; viability (ATP), % of control 66.6.
Serpinb2 [SID363581193] scored GFP, % of control 56.9; viability (ATP), % of control 75.8.
Against Gng7 [SID363570159], the entry reads GFP, % of control 111; viability (ATP), % of control 104.
With knock-down of Gng7 [SID363576495] the results were GFP, % of control 111; viability (ATP), % of control 69.3.
Depletion of Gng7 [SID363579663] came out at: GFP, % of control 25.1; viability (ATP), % of control 48.4.
Tgfbrap1 [SID363556525] showed GFP, % of control 217 (active); viability (ATP), % of control 31.9.
For Tgfbrap1 [SID363586975], the entry reads GFP, % of control 80.3; viability (ATP), % of control 70.5.
Depletion of Tgfbrap1 [SID363589083] came out at: GFP, % of control 104; viability (ATP), % of control 131.
Tmem203 [SID363550033] scored GFP, % of control 63.8; viability (ATP), % of control 82.8.
Silencing of Tmem203 [SID363564542] gave: GFP, % of control 41.6; viability (ATP), % of control 20.1.
After knock-down of Tmem203 [SID363588087] the results were GFP, % of control 91.6; viability (ATP), % of control 94.7.
Against Gata1 [SID363573260], the entry reads GFP, % of control 40.8; viability (ATP), % of control 53.9.
After knock-down of Gata1 [SID363588499] the results were GFP, % of control 50.1; viability (ATP), % of control 55.9.
For Cited1 [SID363573322], the entry reads GFP, % of control 141 (active); viability (ATP), % of control 83.1.
Silencing of Cited1 [SID363588561] resulted in: GFP, % of control 99.1; viability (ATP), % of control 82.7.
Depletion of Fam167b [SID363547094] resulted in: GFP, % of control 74.2; viability (ATP), % of control 77.6.
After knock-down of Fam167b [SID363549906], the record shows GFP, % of control 99.1; viability (ATP), % of control 84.9.
Depletion of Fam167b [SID363587960] came out at: GFP, % of control 105; viability (ATP), % of control 96.5.

8 consecutive entries from above, quoted:
Serpinb2 [SID363581193] | GFP, % of control = 56.9; viability (ATP), % of control = 75.8
Gng7 [SID363570159] | GFP, % of control = 111; viability (ATP), % of control = 104
Gng7 [SID363576495] | GFP, % of control = 111; viability (ATP), % of control = 69.3
Gng7 [SID363579663] | GFP, % of control = 25.1; viability (ATP), % of control = 48.4
Tgfbrap1 [SID363556525] | GFP, % of control = 217 (active); viability (ATP), % of control = 31.9
Tgfbrap1 [SID363586975] | GFP, % of control = 80.3; viability (ATP), % of control = 70.5
Tgfbrap1 [SID363589083] | GFP, % of control = 104; viability (ATP), % of control = 131
Tmem203 [SID363550033] | GFP, % of control = 63.8; viability (ATP), % of control = 82.8

The results go on.
Usp1 [SID363547533] showed GFP, % of control 81.3; viability (ATP), % of control 99.
Knock-down of Usp1 [SID363558302] came out at: GFP, % of control 52.8; viability (ATP), % of control 68.2.
Usp1 [SID363560060] scored GFP, % of control 73.8; viability (ATP), % of control 79.9.
Against Spata6 [SID363556207], the entry reads GFP, % of control 73.1; viability (ATP), % of control 71.5.
Against Spata6 [SID363586657], the values are GFP, % of control 108; viability (ATP), % of control 131.
Spata6 [SID363588765] showed GFP, % of control 143 (active); viability (ATP), % of control 122.
Against Plekha5 [SID363554735], the values are GFP, % of control 62.4; viability (ATP), % of control 65.4.
After knock-down of Plekha5 [SID363568182], the record shows GFP, % of control 85.4; viability (ATP), % of control 79.
Knock-down of Plekha5 [SID363586241] came out at: GFP, % of control 116; viability (ATP), % of control 80.9.
Depletion of Exph5 [SID363555008] gave: GFP, % of control 47.1; viability (ATP), % of control 64.3.
Depletion of Exph5 [SID363568455] came out at: GFP, % of control 58; viability (ATP), % of control 68.5.
For Exph5 [SID363586514], the entry reads GFP, % of control 98.4; viability (ATP), % of control 100.
After knock-down of Med14 [SID363568817] the results were GFP, % of control 238 (active); viability (ATP), % of control 97.1.
Knock-down of Med14 [SID363576209] came out at: GFP, % of control 45.4; viability (ATP), % of control 54.1.
For Med14 [SID363579025], the values are GFP, % of control 67.2; viability (ATP), % of control 27.4.
Spr [SID363574965] scored GFP, % of control 71.9; viability (ATP), % of control 97.7.
Knock-down of Spr [SID363580597] resulted in: GFP, % of control 77.8; viability (ATP), % of control 84.8.
For Spr [SID363582709] the deposit lists GFP, % of control 80.5; viability (ATP), % of control 80.5.
Knock-down of Ly6g6c [SID363562249] came out at: GFP, % of control 78.1; viability (ATP), % of control 60.8.
With knock-down of Ly6g6c [SID363567387], the screen gave GFP, % of control 93; viability (ATP), % of control 72.6.
For Ly6g6c [SID363584744], the entry reads GFP, % of control 122 (active); viability (ATP), % of control 64.2.
After knock-down of Pus7l [SID363554063] the results were GFP, % of control 57.7; viability (ATP), % of control 49.9.
Depletion of Pus7l [SID363562020] came out at: GFP, % of control 73.3; viability (ATP), % of control 82.3.
Depletion of Pus7l [SID363565758] resulted in: GFP, % of control 66.7; viability (ATP), % of control 71.1.
Igfbp7 [SID363581690] showed GFP, % of control 42.4; viability (ATP), % of control 38.7.
Igfbp7 [SID363589184] gave GFP, % of control 38.8; viability (ATP), % of control 39.8.
Cntln [SID363539639] scored GFP, % of control 94; viability (ATP), % of control 84.3.
With knock-down of Cntln [SID363560940], the screen gave GFP, % of control 111; viability (ATP), % of control 70.5.
With knock-down of Cntln [SID363565030] the results were GFP, % of control 120 (active); viability (ATP), % of control 82.4.
Depletion of Mrpl48 [SID363562187] gave: GFP, % of control 153 (active); viability (ATP), % of control 64.5.
Depletion of Mrpl48 [SID363567325] came out at: GFP, % of control 105; viability (ATP), % of control 96.8.
Knock-down of Mrpl48 [SID363584682] resulted in: GFP, % of control 94.4; viability (ATP), % of control 49.
